Results on 42 sequences are retold here after publication PMC7819943, “Rice protein-binding microarrays: a tool to detect cis-acting elements near promoter regions in rice”.

By UniProt entry, the sequences of proteins in these tests, tags left out.
UniProt Q0JBA9, entry or part of it: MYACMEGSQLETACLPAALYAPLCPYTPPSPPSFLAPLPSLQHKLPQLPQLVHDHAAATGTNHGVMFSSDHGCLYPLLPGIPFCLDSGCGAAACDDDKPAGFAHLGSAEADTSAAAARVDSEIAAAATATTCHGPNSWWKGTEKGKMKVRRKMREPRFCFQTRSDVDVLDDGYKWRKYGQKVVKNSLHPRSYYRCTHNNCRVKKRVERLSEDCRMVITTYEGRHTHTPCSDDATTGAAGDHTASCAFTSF

The other results are listed elsewhere or left out.

The test has as its target OsWRKY34 (Oryza sativa, UniProt Q0JBA9 1-250). Briefly: protein-binding microarray (RPBM); PBS, 2% BSA, 51.3 ng/ul salmon testes DNA, 50 uM zinc acetate, 200 nM TF, 25 C, 1 h; high values mean tight binding. The following applies: protein: recombinant; tags: N-terminal polyhistidine and DsRed monomer fusion (pET32a); label: CyDye5-dUTP incorporated in the synthesized complementary strand; 3' TTTTT single-stranded linker to array surface; dsDNA, one strand shown. A digest of the protocol: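 A custom Agilent array was converted to double-stranded form by primer extension with Cy5-dUTP and blocked with 2% BSA. Protein at 200 nM in PBS with 2% BSA, salmon testes DNA and 50 µM zinc acetate was applied for 1 h at 25 °C, followed by washing. The proteins were polyhistidine–DsRed N-terminal fusions of transcription factors, expressed in E. coli BL21-CodonPlus and Ni–NTA-purified. The binding signal is per-feature fluorescence intensity (arbitrary units) from an Axon 4000B scanner.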
As for “TCTTCCACCAAGAACACCTTGTTCATCCTCTGCTCCGCGTCGGAGTCACCTAGTGCAG”, the binding signal is 8560 fluorescence intensity (a.u.).

Turning to “TATACTGGTAGCTTATTAGCCTCAATCACCCTCCTGTTTCCGGAGTCACCTAGTGCAG”, the binding signal is 8140 fluorescence intensity (a.u.).

Turning to “AATGTCTAATCAAGTAATCATCATGTGGTCAATTATCACACGGAGTCACCTAGTGCAG”, the binding signal was 8240 fluorescence intensity (a.u.).

As to “TTTTTGGGTTGATATATTGCTGAATGGTCATTTTCTGGGTCGGAGTCACCTAGTGCAG”, the binding signal was 9890 fluorescence intensity (a.u.).

In the case of “GCGGCGGCGGCGGGGAGGGGTGCTTCTGCCACCTGCTCCGCGGAGTCACCTAGTGCAG”, the binding signal is 13400 fluorescence intensity (a.u.).

Take “TACTTTACATCGTTGCTTCATGTAATACATTAATTTATACCGGAGTCACCTAGTGCAG”: the binding signal is 8460 fluorescence intensity (a.u.).

In the case of “CTCCTCTTCTTCTCTTCTCCTTCGTTGGGCGTGGGCGTCGCGGAGTCACCTAGTGCAG”, the binding signal was 12400 fluorescence intensity (a.u.).

“GTGGTGGTGGTGGTCGCCGTCGTGAACGATTCCTTTTTCTCGGAGTCACCTAGTGCAG”: the binding signal was 14300 fluorescence intensity (a.u.).

With “CCTATCGTCTGTAAACTGCATTTCGCCATATAGCTTTGTTCGGAGTCACCTAGTGCAG”, the binding signal is 8270 fluorescence intensity (a.u.).

For “ATCTGTAACCCGCTGCTCTTTTCTCTCCTTATTTATCTTCCGGAGTCACCTAGTGCAG”, the binding signal is 9180 fluorescence intensity (a.u.).

With “GGAATTCAGGGAAATGTCTCTCTCCTCCACGCTGCATTGTCGGAGTCACCTAGTGCAG”, the binding signal was 9260 fluorescence intensity (a.u.).

With “TCTGTTTTGGTATGGGGAACCTGCCCTGTCGTTGTCAAGTCGGAGTCACCTAGTGCAG”, the binding signal is 11700 fluorescence intensity (a.u.).

In the case of “GCTCCGTCCGTTCACACGCGCCGTCACGCGTACGACTCCGCGGAGTCACCTAGTGCAG”, the binding signal was 10200 fluorescence intensity (a.u.).

Regarding “TGATAATATGGTCCATTAACTTCTACCTTTACCTATCGTTCGGAGTCACCTAGTGCAG”, the binding signal is 10700 fluorescence intensity (a.u.).

On to “TAATTTCTTGCTTGGTCTGCAGTTGCTTGGTGAACAGTATCGGAGTCACCTAGTGCAG”, for which the binding signal is 9970 fluorescence intensity (a.u.).

As to “AACGCGTTGATTTTTTTAGACATGTTTGACTGTTTGTCTTCGGAGTCACCTAGTGCAG”, the binding signal is 9860 fluorescence intensity (a.u.).

As for “ACCGTATTGTTTTCTTTTCATCGTTAGCTTCTCTTAGAAACGGAGTCACCTAGTGCAG”, the binding signal is 8150 fluorescence intensity (a.u.).

With “TCAAGATTTGGTTTATCCTTCGACTGTGTTCATCCTTCGACGGAGTCACCTAGTGCAG”, the binding signal is 9940 fluorescence intensity (a.u.).

In the case of “TAGGTGTTCTTGTTGCCGTCCTGATTCTATACACGGAAAACGGAGTCACCTAGTGCAG”, the binding signal is 8120 fluorescence intensity (a.u.).

Take “TACACTTACATTCCCATCAAAATCCTACGTTTTTCCTATTCGGAGTCACCTAGTGCAG”: the binding signal was 9320 fluorescence intensity (a.u.).

Consider “TAGAACTGTGTTTAGTGTCCTCTTCATATGTTTCTAGACTCGGAGTCACCTAGTGCAG”, for which the binding signal is 8300 fluorescence intensity (a.u.).

“TCTCTCTGTACTCTCTCTCTCTCTGTGTGTTTTTTTGAGACGGAGTCACCTAGTGCAG”: the binding signal was 9000 fluorescence intensity (a.u.).

Turning to “ACTATTCACATTTTCACATCTCCTAGAGCCATTCCACCTTCGGAGTCACCTAGTGCAG”, the binding signal was 10500 fluorescence intensity (a.u.).

Turning to “CACCTCCGTCTCACTCCTCCAGGCACGCTAGCCACGATGCCGGAGTCACCTAGTGCAG”, the binding signal is 8760 fluorescence intensity (a.u.).

As to “AATGTATATCCTTTTTATCCGTTTTCTTTTGAGTGCTACACGGAGTCACCTAGTGCAG”, the binding signal was 11300 fluorescence intensity (a.u.).

As for “AATAAGATAGTGTTGGTAACGGGGCATGGGATCTCGACCGCGGAGTCACCTAGTGCAG”, the binding signal is 8380 fluorescence intensity (a.u.).

As for “CTACTTGGCTACCCCGGCTATCACTTTGCATACAATCATACGGAGTCACCTAGTGCAG”, the binding signal is 9080 fluorescence intensity (a.u.).

On to “AGCCACACCACGTCTCCTGCCGGCCTCTAGACGTATTACACGGAGTCACCTAGTGCAG”, for which the binding signal was 8120 fluorescence intensity (a.u.).

Take “TCTCGCAACGCCCCTATTTTACTTTCTTTTTCATAATTTCCGGAGTCACCTAGTGCAG”: the binding signal was 9380 fluorescence intensity (a.u.).

“GCTGCTCGGTGGTTGGGTTTGGACCGAGCGGGTGAAAGGGCGGAGTCACCTAGTGCAG”: the binding signal is 8530 fluorescence intensity (a.u.).

For “ATAGCTAAACTGTGCAATTGGTTTTTCTTTTTGTCCACATCGGAGTCACCTAGTGCAG”, the binding signal was 9700 fluorescence intensity (a.u.).

On to “TCTTTCCTTATCTTGACCTGTCGTCAGCAAATGTGTCATTCGGAGTCACCTAGTGCAG”, for which the binding signal is 8270 fluorescence intensity (a.u.).

“TCCATCTCTTTTATCTCAGTCTCGCGTATATCCTAGCACCCGGAGTCACCTAGTGCAG”: the binding signal is 11800 fluorescence intensity (a.u.).

As to “GGGATAATTGCTTTCTGCTGTTTTCTTTTTACTTTTTTTTCGGAGTCACCTAGTGCAG”, the binding signal is 9810 fluorescence intensity (a.u.).

As to “CTGGATTGACTTTTTATTCAACGGTTGGAGCAGCTTGTTTCGGAGTCACCTAGTGCAG”, the binding signal is 10900 fluorescence intensity (a.u.).

For “TATATACACTTCTCTTAGCACACATTTCAAACGGTTAAATCGGAGTCACCTAGTGCAG”, the binding signal is 8080 fluorescence intensity (a.u.).

Consider “TCTCTCCAACTTTGGCCACATACACCACAAACAAAATACACGGAGTCACCTAGTGCAG”, for which the binding signal was 8140 fluorescence intensity (a.u.).

For the sequence “CCCCATGTTAGGTCGCTCCTCAACTGCACTATCCATCAGCCGGAGTCACCTAGTGCAG”, the binding signal is 8930 fluorescence intensity (a.u.).

As to “TTGCTCTCCGCCCACAGCACCGACTCATCCTGTTACTCCGCGGAGTCACCTAGTGCAG”, the binding signal is 8680 fluorescence intensity (a.u.).

Consider “GTTCCTCTGATTGGGGAGGCTGGGGCACTGAAAAGGCGAACGGAGTCACCTAGTGCAG”, for which the binding signal is 13000 fluorescence intensity (a.u.).

For the sequence “GGAGGAGGAGGAGGCCAAGGGCGTGGGTACTATGATGATGCGGAGTCACCTAGTGCAG”, the binding signal is 10200 fluorescence intensity (a.u.).

Regarding “TGTTCTTTCAGCGGTAGGCGATGTATCTCTTGTATAGCCGCGGAGTCACCTAGTGCAG”, the binding signal was 8570 fluorescence intensity (a.u.).
